# Experimental data as given in article PMC7819943, “Rice protein-binding microarrays: a tool to detect cis-acting elements near promoter regions in rice”.
# The chains behind the UniProt entries cited, without tags or fusion partners.
# UniProt Q0JBA9, entry or part of it: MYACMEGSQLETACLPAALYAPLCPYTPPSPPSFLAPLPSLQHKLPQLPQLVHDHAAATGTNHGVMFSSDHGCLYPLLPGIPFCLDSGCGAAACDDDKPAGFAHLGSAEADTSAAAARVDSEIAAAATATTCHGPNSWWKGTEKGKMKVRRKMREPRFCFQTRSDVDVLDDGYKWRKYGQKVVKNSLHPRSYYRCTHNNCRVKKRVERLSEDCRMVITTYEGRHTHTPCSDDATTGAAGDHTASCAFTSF
# This is one part of the list.
# Molecular target: OsWRKY34 (Oryza sativa, UniProt Q0JBA9 1-250)
# Experiment: protein-binding microarray (RPBM); PBS, 2% BSA, 51.3 ng/ul salmon testes DNA, 50 uM zinc acetate, 200 nM TF, 25 C, 1 h; high values mean tight binding
# Conditions: protein: recombinant; tags: N-terminal polyhistidine and DsRed monomer fusion (pET32a); label: CyDye5-dUTP incorporated in the synthesized complementary strand; 3' TTTTT single-stranded linker to array surface; dsDNA, one strand shown
# Procedure, shortened: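 The binding signal is fluorescence intensity per array feature (arbitrary units). Readings came from an Axon 4000B scanner after a washed, 2% BSA-blocked, double-stranded custom Agilent array had been incubated for 1 h at 25 °C with 200 nM protein and 50 µM zinc acetate. The protein was a Ni–NTA-purified transcription factor fused N-terminally to polyhistidine and DsRed, expressed in E. coli BL21-CodonPlus.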
row,Sequence,binding signal
1,GCTCTAATTGGCTATCTGTACATCTGTTTGTTATTCTAATCGGAGTCACCTAGTGCAG,11300 fluorescence intensity (a.u.)
2,AGTTGTGGAGCTGTCTAAACCCATCTCTACTTCTCTACTTCGGAGTCACCTAGTGCAG,8200 fluorescence intensity (a.u.)
3,GCTTTCTAGTCGAATTTCTCGTTGGTTTCATTCGACTATACGGAGTCACCTAGTGCAG,13600 fluorescence intensity (a.u.)
4,TCCTTTTTAGTATACCCACCTATTTCTAACCGTCAAATCCCGGAGTCACCTAGTGCAG,9960 fluorescence intensity (a.u.)
5,AACCGCGGGTCCCAAGAGAATATAGTCTGTTCTTCTCGTTCGGAGTCACCTAGTGCAG,8390 fluorescence intensity (a.u.)
6,AAAGACACCCTGGCTTCCATGCCCAACGTTTGACCGTCCGCGGAGTCACCTAGTGCAG,9700 fluorescence intensity (a.u.)
7,GCGCCTAGCCTTCCGTTCGCCCACCGCACCGCGCCACGACCGGAGTCACCTAGTGCAG,8370 fluorescence intensity (a.u.)
8,GCTGGATTACCACGACATCTTCCTCCCGTTCCTGGACAGGCGGAGTCACCTAGTGCAG,9170 fluorescence intensity (a.u.)
9,TTTAATAAAAACAATTCCTCTTTTTTTTCCAATTTTTCTACGGAGTCACCTAGTGCAG,9160 fluorescence intensity (a.u.)
10,GTACTATTCAAAGGTGCTCTTAGTTTTTTTTTGGCATACACGGAGTCACCTAGTGCAG,9020 fluorescence intensity (a.u.)
11,CTCCACTCCTGCTCGTCTCCTCCTCTCTTCCATTCCTTCGCGGAGTCACCTAGTGCAG,10700 fluorescence intensity (a.u.)
12,ACCGTCTCATGTTTGCTTGGTCTCTAAATTTCTTCCAAATCGGAGTCACCTAGTGCAG,11800 fluorescence intensity (a.u.)
13,TAGATTGCTCATTCTTTCTCTTTATCTTCCTATCTTCTTCCGGAGTCACCTAGTGCAG,9970 fluorescence intensity (a.u.)
14,GGCGCCCTTGCGAGCACGTAATCCCGGCCCGGTCACCCAACGGAGTCACCTAGTGCAG,10200 fluorescence intensity (a.u.)
15,TCCATCATCAATCTATCCACTCCTTTATTTTTCCCATATCCGGAGTCACCTAGTGCAG,8820 fluorescence intensity (a.u.)
16,TCCTTTTTATTCTCTCTCCCTTTTACACTCCTCGATCTCCCGGAGTCACCTAGTGCAG,11700 fluorescence intensity (a.u.)
17,GTTCATGCCGATCACGTACTATCTCATCTTCCCACTCAAACGGAGTCACCTAGTGCAG,11300 fluorescence intensity (a.u.)
18,TCCACTTCTTGCTCGCCGCCGCCGCCGCCGCCGCCGCCGGCGGAGTCACCTAGTGCAG,13700 fluorescence intensity (a.u.)
19,TTCTTGGTTTCTTTCATCCACGGCAAACGTTGGAATTCGTCGGAGTCACCTAGTGCAG,8860 fluorescence intensity (a.u.)
20,ACCGGGCAGCTTCTCTCTCTCGCGTTGCTGCCGCGCGCGGCGGAGTCACCTAGTGCAG,10200 fluorescence intensity (a.u.)
21,TTTATCTCGACCATATTCTGTACTTTAAAATGTGATTTTACGGAGTCACCTAGTGCAG,9380 fluorescence intensity (a.u.)

row,Sequence,binding signal
1,CGTGATTTACCATTTACGTTACGAGTAATCTCCCTATGAACGGAGTCACCTAGTGCAG,8630 fluorescence intensity (a.u.)
2,ATCGTTTGGGGTCATTTTCTGCGGTTTGGTGGTGTTGTGCCGGAGTCACCTAGTGCAG,11100 fluorescence intensity (a.u.)
3,AGTGGTAGTTGTAGTTTGGTCGGTCATTCGATCTCGCTATCGGAGTCACCTAGTGCAG,12300 fluorescence intensity (a.u.)
4,ACATGGGCTGGGCTGGGCTGGGCTCTTCTTCCTTTTTGTTCGGAGTCACCTAGTGCAG,21900 fluorescence intensity (a.u.)
5,CTTTGGTGGTTAGTACCCTATATATTGCGCGTCTTAAAATCGGAGTCACCTAGTGCAG,8740 fluorescence intensity (a.u.)
6,GTAAGTATACTAGTACCAGTAGAGTGCATGTTTGCCAGCCCGGAGTCACCTAGTGCAG,8140 fluorescence intensity (a.u.)
7,ATTCGCAGCGTTGACCAGCATTCATATTCCGAATTCCGAGCGGAGTCACCTAGTGCAG,11200 fluorescence intensity (a.u.)
8,AACTTTCTCAAGTCTTTCATGCATGCAGATATATATTCTCCGGAGTCACCTAGTGCAG,8450 fluorescence intensity (a.u.)
9,AAATACACAATCTTTTCTCATCACACCCTTCCATTTTTTTCGGAGTCACCTAGTGCAG,8940 fluorescence intensity (a.u.)
10,AAGATTCCAATCGGGAGGCGGCGGGGCGGCGGAGAAGCTCCGGAGTCACCTAGTGCAG,14300 fluorescence intensity (a.u.)
11,ATAACCCGCTGCTATTCTCTCTTCTCATTTATCTTCTTAACGGAGTCACCTAGTGCAG,8960 fluorescence intensity (a.u.)
12,GGCGGGAGCGTGAAGGGGAGGGACATGGCGGGGAGCGGATCGGAGTCACCTAGTGCAG,9940 fluorescence intensity (a.u.)
13,CTATTACCAATTGCAAATTCTTTTTTGGTTTTCTATCAGTCGGAGTCACCTAGTGCAG,9250 fluorescence intensity (a.u.)
14,CTGCTGGCCTCTTGCCCAGGCTCTGCCGTACTTTGCCTTTCGGAGTCACCTAGTGCAG,8020 fluorescence intensity (a.u.)
15,GGGGTACTTTATTCAGTTTTGATACAGTTAGGGCTTATAGCGGAGTCACCTAGTGCAG,9110 fluorescence intensity (a.u.)
16,GGTTTGGCTTGGCTTGGCGGCTGGTTCTGCTGAGGCTGACCGGAGTCACCTAGTGCAG,11900 fluorescence intensity (a.u.)
17,GCACTACTCCATCTGTACCGTCCATGCCACAAAACGAGTGCGGAGTCACCTAGTGCAG,8040 fluorescence intensity (a.u.)
18,CAGTCCTTTTTCATAACATCAATCTGTTATACACACACAACGGAGTCACCTAGTGCAG,8760 fluorescence intensity (a.u.)
19,CCGATGACAAGTTGAGGGACCTTTGGTGTACTTTTTCCTTCGGAGTCACCTAGTGCAG,8040 fluorescence intensity (a.u.)
20,CAAACTTCACCTCTACTCTCTCTCTCTCTCTCTCTCTCTCCGGAGTCACCTAGTGCAG,8760 fluorescence intensity (a.u.)
21,AATTGGCTTACTAAACGTGCCCATAGTTTGTAATATATCTCGGAGTCACCTAGTGCAG,8170 fluorescence intensity (a.u.)

# Some values from above:
# GGTTTGGCTTGGCTTGGCGGCTGGTTCTGCTGAGGCTGACCGGAGTCACCTAGTGCAG | binding signal: 11900 fluorescence intensity (a.u.)
# ATTCGCAGCGTTGACCAGCATTCATATTCCGAATTCCGAGCGGAGTCACCTAGTGCAG | binding signal: 11200 fluorescence intensity (a.u.)
